Experimental data: patent US20060024698, “Method to protect DNA ends” (published 2006)

Biological target: T1, Exonuclease I (Escherichia coli) (UniProt P04995)
T1 sequence (looked up, limits assumed): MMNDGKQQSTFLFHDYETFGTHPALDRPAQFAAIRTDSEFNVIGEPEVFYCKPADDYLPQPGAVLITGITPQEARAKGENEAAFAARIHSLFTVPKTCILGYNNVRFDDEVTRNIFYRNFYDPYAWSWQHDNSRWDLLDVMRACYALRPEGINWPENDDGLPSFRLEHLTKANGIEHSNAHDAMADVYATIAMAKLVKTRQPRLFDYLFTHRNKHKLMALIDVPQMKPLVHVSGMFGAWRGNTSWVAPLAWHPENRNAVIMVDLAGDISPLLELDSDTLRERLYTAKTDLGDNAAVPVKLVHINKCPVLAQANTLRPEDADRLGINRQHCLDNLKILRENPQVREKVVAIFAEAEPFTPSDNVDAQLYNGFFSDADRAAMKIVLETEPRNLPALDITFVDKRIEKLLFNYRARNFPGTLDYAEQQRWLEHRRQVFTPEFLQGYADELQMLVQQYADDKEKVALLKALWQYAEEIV
Experiment: enzyme reaction in vitro
Details: removes 3' single-strand extension; 10 mM MgCl2, 37 C; blocked by DdrA; label: 5'-32P on 37 nt strand

CTAGCATTAGTTTCTTCCTTAAACAATTTGAAAGACC / GGTCTTTCAAATTGTTTAAGGAAGAAACTAATGCTAGCCACGGTCCGAGCC [duplex 37/51 with 3' extension]
activity on this sequence: active

The exact form of at least one protein or probe is not confirmed. Protein sequences can lack the tags named with them.
